The list shows a part of the results.
compound: COc1ccc(Cn2ccc3ccc(C(=O)NO)cc32)cc1; assay: dose-dependent thermal stabilisation call (2D-TPP, DLPTP, 10% FDR) (binary (1 = stabilised)); higher = stabilised by the compound; settings: system: HL-60 intact cells; concentration range 0.04-10 µM

Sequences of proteins named here, by UniProt entry; tags and fusion partners are left off. A change or cut given only in a name is not applied to a line headed by its entry.
UniProt Q96B45: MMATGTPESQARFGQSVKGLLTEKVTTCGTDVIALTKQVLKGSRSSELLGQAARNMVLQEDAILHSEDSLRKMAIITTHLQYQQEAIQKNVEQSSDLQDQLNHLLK
UniProt Q9NRL2: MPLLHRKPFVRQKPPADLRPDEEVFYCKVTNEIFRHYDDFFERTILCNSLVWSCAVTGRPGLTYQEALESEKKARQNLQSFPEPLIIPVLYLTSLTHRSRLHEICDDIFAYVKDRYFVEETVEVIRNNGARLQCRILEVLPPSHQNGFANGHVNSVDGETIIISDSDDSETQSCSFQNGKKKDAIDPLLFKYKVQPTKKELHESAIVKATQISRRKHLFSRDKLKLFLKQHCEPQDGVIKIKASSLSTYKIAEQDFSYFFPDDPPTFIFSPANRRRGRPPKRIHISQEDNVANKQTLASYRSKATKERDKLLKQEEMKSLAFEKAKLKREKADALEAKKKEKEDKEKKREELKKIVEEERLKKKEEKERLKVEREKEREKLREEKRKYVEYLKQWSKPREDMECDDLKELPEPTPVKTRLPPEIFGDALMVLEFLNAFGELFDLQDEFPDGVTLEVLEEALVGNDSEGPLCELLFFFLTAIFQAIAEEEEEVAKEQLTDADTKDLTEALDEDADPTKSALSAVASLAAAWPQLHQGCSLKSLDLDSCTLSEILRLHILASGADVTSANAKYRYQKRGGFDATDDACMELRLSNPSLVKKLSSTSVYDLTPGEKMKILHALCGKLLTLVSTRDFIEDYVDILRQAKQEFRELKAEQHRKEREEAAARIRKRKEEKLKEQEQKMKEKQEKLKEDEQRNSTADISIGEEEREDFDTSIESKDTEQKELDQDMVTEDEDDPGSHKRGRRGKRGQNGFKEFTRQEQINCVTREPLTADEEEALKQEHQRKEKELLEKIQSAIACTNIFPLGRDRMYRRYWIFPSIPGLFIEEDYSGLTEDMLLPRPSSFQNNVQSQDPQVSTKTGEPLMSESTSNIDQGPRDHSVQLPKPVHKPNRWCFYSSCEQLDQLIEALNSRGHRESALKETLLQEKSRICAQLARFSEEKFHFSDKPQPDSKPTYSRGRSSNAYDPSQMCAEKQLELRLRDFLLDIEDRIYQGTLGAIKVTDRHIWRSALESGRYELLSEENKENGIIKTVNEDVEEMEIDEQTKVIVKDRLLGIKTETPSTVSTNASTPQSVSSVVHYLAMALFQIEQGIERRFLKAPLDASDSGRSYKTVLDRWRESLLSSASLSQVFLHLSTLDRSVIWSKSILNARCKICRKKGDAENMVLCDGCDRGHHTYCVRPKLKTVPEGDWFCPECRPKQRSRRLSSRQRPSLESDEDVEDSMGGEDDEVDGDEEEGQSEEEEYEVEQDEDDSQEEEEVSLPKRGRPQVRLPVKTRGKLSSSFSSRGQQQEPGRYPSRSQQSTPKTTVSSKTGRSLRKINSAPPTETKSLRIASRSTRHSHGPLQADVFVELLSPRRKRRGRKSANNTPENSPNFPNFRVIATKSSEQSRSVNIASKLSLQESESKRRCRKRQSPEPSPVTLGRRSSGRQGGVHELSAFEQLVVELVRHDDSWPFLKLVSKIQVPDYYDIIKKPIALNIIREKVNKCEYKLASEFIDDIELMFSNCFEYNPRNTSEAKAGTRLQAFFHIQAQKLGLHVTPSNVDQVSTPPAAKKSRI
UniProt Q9NW81: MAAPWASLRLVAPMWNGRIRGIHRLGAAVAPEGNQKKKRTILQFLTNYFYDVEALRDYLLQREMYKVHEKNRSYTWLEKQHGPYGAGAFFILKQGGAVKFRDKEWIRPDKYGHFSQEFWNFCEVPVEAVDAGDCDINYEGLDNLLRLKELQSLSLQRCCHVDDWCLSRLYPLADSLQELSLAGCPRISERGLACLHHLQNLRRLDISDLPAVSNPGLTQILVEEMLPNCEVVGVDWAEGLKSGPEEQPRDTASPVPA
UniProt Q7L1Q6: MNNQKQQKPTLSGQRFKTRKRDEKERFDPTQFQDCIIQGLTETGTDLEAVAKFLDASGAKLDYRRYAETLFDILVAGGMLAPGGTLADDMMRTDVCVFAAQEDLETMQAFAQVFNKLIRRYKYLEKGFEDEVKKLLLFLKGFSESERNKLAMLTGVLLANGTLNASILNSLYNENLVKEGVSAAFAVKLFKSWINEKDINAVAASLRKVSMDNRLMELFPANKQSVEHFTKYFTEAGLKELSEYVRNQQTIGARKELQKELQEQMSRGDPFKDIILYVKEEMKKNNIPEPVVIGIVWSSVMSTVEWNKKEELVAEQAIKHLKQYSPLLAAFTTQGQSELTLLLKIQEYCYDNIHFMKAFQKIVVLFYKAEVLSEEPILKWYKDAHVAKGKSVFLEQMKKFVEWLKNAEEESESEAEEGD
UniProt P36543, whole entry: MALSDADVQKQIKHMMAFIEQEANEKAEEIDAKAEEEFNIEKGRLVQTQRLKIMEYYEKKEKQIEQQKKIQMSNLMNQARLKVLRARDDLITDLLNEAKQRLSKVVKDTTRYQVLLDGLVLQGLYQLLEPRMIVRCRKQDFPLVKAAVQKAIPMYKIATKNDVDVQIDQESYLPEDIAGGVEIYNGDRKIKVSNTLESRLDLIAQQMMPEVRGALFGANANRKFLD
UniProt Q13895: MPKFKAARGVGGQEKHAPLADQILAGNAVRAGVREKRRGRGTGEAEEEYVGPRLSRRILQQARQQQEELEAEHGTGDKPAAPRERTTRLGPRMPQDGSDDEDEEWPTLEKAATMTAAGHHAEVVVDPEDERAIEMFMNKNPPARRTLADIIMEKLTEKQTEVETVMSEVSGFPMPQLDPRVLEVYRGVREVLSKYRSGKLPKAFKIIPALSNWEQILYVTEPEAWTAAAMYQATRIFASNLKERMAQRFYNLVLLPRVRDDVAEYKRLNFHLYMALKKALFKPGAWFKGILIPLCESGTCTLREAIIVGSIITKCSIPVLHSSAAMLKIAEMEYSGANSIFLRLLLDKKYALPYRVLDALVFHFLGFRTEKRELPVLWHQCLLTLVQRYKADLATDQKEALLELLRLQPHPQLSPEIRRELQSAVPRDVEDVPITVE
UniProt Q9NVT9: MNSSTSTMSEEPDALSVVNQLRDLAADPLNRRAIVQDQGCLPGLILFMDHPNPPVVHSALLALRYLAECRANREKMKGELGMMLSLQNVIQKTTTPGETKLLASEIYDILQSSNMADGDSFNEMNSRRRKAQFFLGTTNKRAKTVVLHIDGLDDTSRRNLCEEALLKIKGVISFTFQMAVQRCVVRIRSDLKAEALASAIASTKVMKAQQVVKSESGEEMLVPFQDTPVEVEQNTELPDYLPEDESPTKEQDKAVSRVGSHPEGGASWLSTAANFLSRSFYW
UniProt Q9Y276: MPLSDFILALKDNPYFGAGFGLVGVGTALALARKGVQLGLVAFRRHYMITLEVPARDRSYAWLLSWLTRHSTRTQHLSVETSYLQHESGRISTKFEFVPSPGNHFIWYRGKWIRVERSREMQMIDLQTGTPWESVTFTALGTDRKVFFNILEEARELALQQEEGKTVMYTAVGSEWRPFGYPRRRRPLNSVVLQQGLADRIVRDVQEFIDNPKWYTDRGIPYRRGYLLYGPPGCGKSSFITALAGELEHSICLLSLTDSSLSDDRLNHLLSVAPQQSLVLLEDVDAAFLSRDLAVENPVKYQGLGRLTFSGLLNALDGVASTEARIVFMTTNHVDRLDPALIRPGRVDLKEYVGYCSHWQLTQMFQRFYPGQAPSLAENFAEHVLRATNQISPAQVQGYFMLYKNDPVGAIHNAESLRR
UniProt Q9H0E9, whole entry: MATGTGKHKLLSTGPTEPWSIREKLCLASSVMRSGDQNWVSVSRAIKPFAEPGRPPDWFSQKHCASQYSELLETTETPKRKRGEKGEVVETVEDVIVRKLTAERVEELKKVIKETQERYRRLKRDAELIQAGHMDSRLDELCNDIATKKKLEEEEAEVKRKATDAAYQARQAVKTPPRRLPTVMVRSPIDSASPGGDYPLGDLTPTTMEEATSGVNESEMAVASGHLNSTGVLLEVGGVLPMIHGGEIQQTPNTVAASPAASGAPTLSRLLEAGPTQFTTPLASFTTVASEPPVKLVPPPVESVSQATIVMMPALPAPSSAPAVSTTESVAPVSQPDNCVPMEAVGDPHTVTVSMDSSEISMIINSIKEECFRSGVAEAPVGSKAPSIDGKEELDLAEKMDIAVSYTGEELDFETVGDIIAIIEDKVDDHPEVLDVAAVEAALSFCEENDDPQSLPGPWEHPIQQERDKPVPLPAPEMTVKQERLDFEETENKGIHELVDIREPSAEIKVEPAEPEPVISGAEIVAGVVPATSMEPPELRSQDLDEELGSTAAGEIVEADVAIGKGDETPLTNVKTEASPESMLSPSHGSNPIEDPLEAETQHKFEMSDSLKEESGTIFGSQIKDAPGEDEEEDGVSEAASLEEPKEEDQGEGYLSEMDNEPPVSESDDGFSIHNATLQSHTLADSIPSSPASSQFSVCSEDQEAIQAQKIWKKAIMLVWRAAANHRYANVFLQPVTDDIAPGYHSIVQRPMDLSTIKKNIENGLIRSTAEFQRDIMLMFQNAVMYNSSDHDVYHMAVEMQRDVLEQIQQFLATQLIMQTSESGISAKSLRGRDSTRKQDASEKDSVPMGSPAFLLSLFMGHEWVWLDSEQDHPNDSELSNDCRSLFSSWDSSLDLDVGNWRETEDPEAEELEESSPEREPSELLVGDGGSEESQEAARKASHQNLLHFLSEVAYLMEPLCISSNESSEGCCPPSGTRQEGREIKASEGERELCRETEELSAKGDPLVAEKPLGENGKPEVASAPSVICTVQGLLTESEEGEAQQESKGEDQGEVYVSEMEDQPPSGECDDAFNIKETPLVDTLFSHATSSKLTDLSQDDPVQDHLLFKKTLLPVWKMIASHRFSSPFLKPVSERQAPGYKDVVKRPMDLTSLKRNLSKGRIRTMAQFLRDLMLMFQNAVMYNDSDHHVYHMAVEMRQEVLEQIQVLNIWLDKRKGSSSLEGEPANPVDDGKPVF
UniProt O75964: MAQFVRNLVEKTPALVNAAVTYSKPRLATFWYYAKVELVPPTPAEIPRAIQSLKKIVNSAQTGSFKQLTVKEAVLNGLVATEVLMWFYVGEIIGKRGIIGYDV
UniProt Q7Z569: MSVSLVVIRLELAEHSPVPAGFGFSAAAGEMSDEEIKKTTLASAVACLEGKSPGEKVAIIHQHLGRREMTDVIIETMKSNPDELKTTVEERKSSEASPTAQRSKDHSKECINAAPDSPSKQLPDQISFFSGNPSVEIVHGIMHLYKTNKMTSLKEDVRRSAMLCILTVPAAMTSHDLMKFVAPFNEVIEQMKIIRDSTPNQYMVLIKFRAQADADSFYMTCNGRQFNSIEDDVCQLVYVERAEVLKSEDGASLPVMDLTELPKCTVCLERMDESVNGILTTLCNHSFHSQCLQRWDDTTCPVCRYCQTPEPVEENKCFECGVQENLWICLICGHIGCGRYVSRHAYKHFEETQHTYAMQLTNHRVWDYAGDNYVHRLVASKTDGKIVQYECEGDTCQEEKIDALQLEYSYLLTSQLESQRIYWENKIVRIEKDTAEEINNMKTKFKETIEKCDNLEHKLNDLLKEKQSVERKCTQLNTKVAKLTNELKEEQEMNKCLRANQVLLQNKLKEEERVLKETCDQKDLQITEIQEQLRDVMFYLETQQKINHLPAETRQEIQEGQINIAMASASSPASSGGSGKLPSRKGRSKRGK
UniProt Q9UII2: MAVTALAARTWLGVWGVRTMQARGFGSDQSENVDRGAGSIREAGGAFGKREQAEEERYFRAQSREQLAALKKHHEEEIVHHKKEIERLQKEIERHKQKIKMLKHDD
UniProt Q9Y487, whole entry: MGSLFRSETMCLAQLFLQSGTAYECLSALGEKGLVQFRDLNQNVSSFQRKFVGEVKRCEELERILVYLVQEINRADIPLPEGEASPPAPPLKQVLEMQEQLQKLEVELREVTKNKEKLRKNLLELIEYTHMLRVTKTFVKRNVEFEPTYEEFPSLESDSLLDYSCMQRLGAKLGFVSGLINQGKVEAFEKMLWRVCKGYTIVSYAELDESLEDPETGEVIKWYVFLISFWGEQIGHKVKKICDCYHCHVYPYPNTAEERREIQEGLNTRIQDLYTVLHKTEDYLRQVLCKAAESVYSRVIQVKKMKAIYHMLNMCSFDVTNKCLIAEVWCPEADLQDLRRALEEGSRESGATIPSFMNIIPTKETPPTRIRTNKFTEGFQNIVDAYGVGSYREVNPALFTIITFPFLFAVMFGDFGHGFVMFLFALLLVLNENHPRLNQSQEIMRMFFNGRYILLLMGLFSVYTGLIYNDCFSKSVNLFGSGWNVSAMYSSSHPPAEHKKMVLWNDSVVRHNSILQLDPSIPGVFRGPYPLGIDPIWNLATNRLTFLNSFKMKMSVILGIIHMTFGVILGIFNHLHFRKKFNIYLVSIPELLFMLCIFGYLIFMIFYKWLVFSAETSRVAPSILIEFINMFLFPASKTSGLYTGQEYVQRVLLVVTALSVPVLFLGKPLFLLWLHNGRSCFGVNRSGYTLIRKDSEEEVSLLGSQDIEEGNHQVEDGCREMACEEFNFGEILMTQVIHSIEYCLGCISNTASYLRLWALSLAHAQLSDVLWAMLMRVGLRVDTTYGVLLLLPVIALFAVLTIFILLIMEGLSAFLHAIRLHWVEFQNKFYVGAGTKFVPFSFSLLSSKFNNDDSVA

Target	dose-dependent thermal stabilisation call
ATP6V1F (UniProt Q16864)	inactive: 0
C12ORF10 (UniProt Q9HB07)	inactive: 0
C10ORF32 (UniProt Q96B45)	inactive: 0
BAZ1A (UniProt Q9NRL2)	inactive: 0
ATP5SL (UniProt Q9NW81)	inactive: 0
C12ORF29 (UniProt Q8N999)	inactive: 0
C11ORF2	inactive: 0
ARL6IP4 (UniProt Q66PJ3)	inactive: 0
C11ORF59 (UniProt Q6IAA8)	inactive: 0
BCL2L12 (UniProt Q9HB09)	inactive: 0
ATP6AP2 (UniProt O75787)	inactive: 0
B4GALT7 (UniProt Q9UBV7)	inactive: 0
C12ORF11 (UniProt Q9NVM9)	inactive: 0
BZW1 (UniProt Q7L1Q6)	inactive: 0
ATP5D (UniProt P30049)	inactive: 0
C12ORF73 (UniProt Q69YU5)	inactive: 0
ATP6V1E1 (UniProt P36543)	inactive: 0
ATN1 (UniProt P54259)	inactive: 0
ATP6V1C1 (UniProt P21283)	inactive: 0

An excerpt of these results, with bars between the fields.
Target | dose-dependent thermal stabilisation call
BCL2L12 (UniProt Q9HB09) | inactive: 0
C12ORF73 (UniProt Q69YU5) | inactive: 0

The results go on:

Target	dose-dependent thermal stabilisation call
BYSL (UniProt Q13895)	inactive: 0
BUD13 (UniProt Q9BRD0)	inactive: 0
ASXL2 (UniProt Q76L83)	inactive: 0
ARMC1 (UniProt Q9NVT9)	inactive: 0
BST2 (UniProt Q10589)	inactive: 0
ARPC4 (UniProt P59998)	inactive: 0
BCS1L (UniProt Q9Y276)	inactive: 0
BRD8 (UniProt Q9H0E9)	inactive: 0
ATP5L (UniProt O75964)	inactive: 0
BAG2 (UniProt O95816)	inactive: 0
BNIP1 (UniProt Q12981)	inactive: 0
BRAP (UniProt Q7Z569)	inactive: 0
BCR (UniProt P11274)	inactive: 0
BAP1 (UniProt Q92560)	inactive: 0
BIRC2 (UniProt Q13490)	inactive: 0
ATPIF1 (UniProt Q9UII2)	inactive: 0
BAT3 (UniProt P46379)	inactive: 0
ATP6V0A2 (UniProt Q9Y487)	inactive: 0
ASAP1 (UniProt Q9ULH1)	inactive: 0

— the supplement of paper PMC7666118
